This is an account of results in article PMC8384837.

Positions count from the first letter of the chain named. The list shows a part of the results. For part of these data: At the low end of the ranking the order means little. For part of these data: The exact form of the protein is not confirmed. Where only a bound is given, the exact number is not on record here.

What all share (conditions): yeast three-hybrid, YBZ-1, SC-Leu-His + 0.5 mM 3-AT, 4 days
Assay [1] deals with T1, PUM1 PUF domain R2-VFQ R3-THE R4-TFR N899V + Y900F + C935T + R936H + Q939E + N971T + H972F + Q975R (UniProt Q14671).
T1 sequence: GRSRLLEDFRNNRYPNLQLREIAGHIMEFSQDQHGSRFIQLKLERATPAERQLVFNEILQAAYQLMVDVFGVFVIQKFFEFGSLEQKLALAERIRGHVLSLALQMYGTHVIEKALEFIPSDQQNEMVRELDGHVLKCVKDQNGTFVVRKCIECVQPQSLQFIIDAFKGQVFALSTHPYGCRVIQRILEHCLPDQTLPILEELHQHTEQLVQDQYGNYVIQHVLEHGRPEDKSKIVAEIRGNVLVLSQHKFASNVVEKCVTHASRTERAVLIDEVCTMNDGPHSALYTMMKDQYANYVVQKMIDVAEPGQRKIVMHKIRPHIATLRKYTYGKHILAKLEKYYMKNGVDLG

The target of assay [2] is T2, PUM1 PUF domain R3-THE R4-TFR C935T + R936H + Q939E + N971T + H972F + Q975R (UniProt Q14671).
T2 sequence: T1 sequence with V72N, F73Y

For assay [3], the target named is T3, PUM1 PUF domain R3-THE R4-TFR R7-NPG C935T + R936H + Q939E + N971T + H972F + Q975R + S1079N + N1080P + E1083G (Homo sapiens) (UniProt Q14671).
T3 sequence: T1 sequence with V72N, F73Y, S252N, N253P, E256G

For assay [4], the target named is T4, PUM1 PUF domain R6-SWD R7-NPG N1043S + Y1044W + Q1047D + S1079N + N1080P + E1083G (Homo sapiens) (UniProt Q14671).
T4 sequence: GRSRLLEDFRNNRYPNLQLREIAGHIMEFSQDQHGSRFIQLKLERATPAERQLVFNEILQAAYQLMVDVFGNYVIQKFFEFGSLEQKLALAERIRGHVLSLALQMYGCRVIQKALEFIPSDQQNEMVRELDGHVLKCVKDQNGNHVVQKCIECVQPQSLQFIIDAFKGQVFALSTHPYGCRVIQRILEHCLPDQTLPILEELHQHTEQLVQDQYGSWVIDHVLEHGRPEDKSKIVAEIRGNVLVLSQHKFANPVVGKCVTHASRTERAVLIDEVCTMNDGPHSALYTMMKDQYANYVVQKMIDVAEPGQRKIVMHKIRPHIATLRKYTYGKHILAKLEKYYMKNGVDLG

Assay [5] has as its target T5, PUM1 PUF domain R5-PHQ R6-SWD C1007P + R1008H + N1043S + Y1044W + Q1047D (UniProt Q14671).
T5 sequence: T4 sequence with C180P, R181H, N252S, P253N, G256E

Assay [6] deals with T6, PUM1 PUF domain R3-THE R4-TFR R7-NPG C935T + R936H + Q939E + N971T + H972F + Q975R + S1079N + N1080P + E1083G (UniProt Q14671).
T6 sequence: T1 sequence with V72N, F73Y, S252N, N253P, E256G

Assay [7] addresses T7, PUM1 PUF domain R6-SWD R7-NPG N1043S + Y1044W + Q1047D + S1079N + N1080P + E1083G (UniProt Q14671).
T7 sequence: T4 sequence

For “GGCUAGAACUAGUGGAUCCCCCGGCGCCCGGCGGCUCGAGCCCGGGUAAGUCUCCGUAGUCUGCAUGCCGCCGGGCGCCAUGCCUGCAGGUCGACUCUAGAAAACAUG”, the binding signal (log2 enrichment (interaction score)) in assay [1] is -4.74; in assay [2], -6.98; in assay [3], -1.92; in assay [4], -1.75.
As to “GGCUAGAACUAGUGGAUCCCCCGGCGCCCGGCGGCUCGAGCCCGGGUAAGUGGAAGUUGUCUGCAUGCCGCCGGGCGCCAUGCCUGCAGGUCGACUCUAGAAAACAUG”, the binding signal (log2 enrichment (interaction score)) in assay [1] was -6.66; in assay [2], -5.72; in assay [5], -7.68.
In the case of “GGCUAGAACUAGUGGAUCCCCCGGCGCCCGGCGGCUCGAGCCCGGGUAAGUUAACAUCGUCUGCAUGCCGCCGGGCGCCAUGCCUGCAGGUCGACUCUAGAAAACAUG”, the binding signal (log2 enrichment (interaction score)) is -4.93 in assay [1], less than -7.21 in assay [2], -2.04 in assay [6] and -1.24 in assay [4].
On to “GGCUAGAACUAGUGGAUCCCCCGGCGCCCGGCGGCUCGAGCCCGGGUAAGUCAAGAAAGUCUGCAUGCCGCCGGGCGCCAUGCCUGCAGGUCGACUCUAGAAAACAUG”, for which the binding signal (log2 enrichment (interaction score)) in assay [1] is -5.36; in assay [2] it was -6.77; in assay [3], less than -1.96; in assay [5] it was less than -7.57; in assay [7] it was -2.8.
“GGCUAGAACUAGUGGAUCCCCCGGCGCCCGGCGGCUCGAGCCCGGGUAAGAUAACGACGUCUGCAUGCCGCCGGGCGCCAUGCCUGCAGGUCGACUCUAGAAAACAUG”: the figures for the binding signal (log2 enrichment (interaction score)) in assay [1], in assay [2] and in assay [3] were -5.55, -5.15 and less than -1.76, respectively.
For “GGCUAGAACUAGUGGAUCCCCCGGCGCCCGGCGGCUCGAGCCCGGGUAAGUGCUAAUAGUCUGCAUGCCGCCGGGCGCCAUGCCUGCAGGUCGACUCUAGAAAACAUG”, the binding signal (log2 enrichment (interaction score)) in assay [1] was -5.09; in assay [2] it was less than -7.41; in assay [5], -8.26.
With “GGCUAGAACUAGUGGAUCCCCCGGCGCCCGGCGGCUCGAGCCCGGGUAAGUGGCAAUAGUCUGCAUGCCGCCGGGCGCCAUGCCUGCAGGUCGACUCUAGAAAACAUG”, the binding signal (log2 enrichment (interaction score)) is less than -5.05 in assay [1], -7.07 in assay [2] and -4.69 in assay [5].
On to “GGCUAGAACUAGUGGAUCCCCCGGCGCCCGGCGGCUCGAGCCCGGGUAAGUUUACCUCGUCUGCAUGCCGCCGGGCGCCAUGCCUGCAGGUCGACUCUAGAAAACAUG”, for which the binding signal (log2 enrichment (interaction score)) in assay [1] is -5.93; in assay [2] it was -7.87; in assay [3] it was less than -0.86; in assay [4], -1.5.
“GGCUAGAACUAGUGGAUCCCCCGGCGCCCGGCGGCUCGAGCCCGGGUAAGUCGACAAAGUCUGCAUGCCGCCGGGCGCCAUGCCUGCAGGUCGACUCUAGAAAACAUG”: the binding signal (log2 enrichment (interaction score)) in assay [1] was -3.89; in assay [2] it was -7.47; in assay [3], -1.81; in assay [5], -7.24.
As for “GGCUAGAACUAGUGGAUCCCCCGGCGCCCGGCGGCUCGAGCCCGGGUAAGUGCAACGGGUCUGCAUGCCGCCGGGCGCCAUGCCUGCAGGUCGACUCUAGAAAACAUG”, the binding signal (log2 enrichment (interaction score)) in assay [1] was -4.79; in assay [2] it was less than -5.81; in assay [5], -8.09.
“GGCUAGAACUAGUGGAUCCCCCGGCGCCCGGCGGCUCGAGCCCGGGUAAGUGUUCGCUGUCUGCAUGCCGCCGGGCGCCAUGCCUGCAGGUCGACUCUAGAAAACAUG”: the binding signal (log2 enrichment (interaction score)) was -5.85 in assay [1], -6.46 in assay [2] and -2.7 in assay [6].
“GGCUAGAACUAGUGGAUCCCCCGGCGCCCGGCGGCUCGAGCCCGGGUAAGUUGCAGUAGUCUGCAUGCCGCCGGGCGCCAUGCCUGCAGGUCGACUCUAGAAAACAUG”: the binding signal (log2 enrichment (interaction score)) was -4.93 in assay [1], -6.68 in assay [2], less than -0.97 in assay [3] and -8.05 in assay [5].
Take “GGCUAGAACUAGUGGAUCCCCCGGCGCCCGGCGGCUCGAGCCCGGGUAAGCCGAAUUAGUCUGCAUGCCGCCGGGCGCCAUGCCUGCAGGUCGACUCUAGAAAACAUG”: the binding signal (log2 enrichment (interaction score)) in assay [1] was -5.73; in assay [2], less than -7.25; in assay [3], -0.15; in assay [5], -7.02.
“GGCUAGAACUAGUGGAUCCCCCGGCGCCCGGCGGCUCGAGCCCGGGUAAGUGUAUAAAGUCUGCAUGCCGCCGGGCGCCAUGCCUGCAGGUCGACUCUAGAAAACAUG”: the results for the binding signal (log2 enrichment (interaction score)) in assay [1], in assay [2] and in assay [5] were -5.39, less than -6.79 and -6.28, respectively.
Consider “GGCUAGAACUAGUGGAUCCCCCGGCGCCCGGCGGCUCGAGCCCGGGUAAGUGUAGGGGGUCUGCAUGCCGCCGGGCGCCAUGCCUGCAGGUCGACUCUAGAAAACAUG”, for which the results for the binding signal (log2 enrichment (interaction score)) in assay [1], in assay [2] and in assay [6] were -5.32, -6.63 and -2.24, respectively.
As to “GGCUAGAACUAGUGGAUCCCCCGGCGCCCGGCGGCUCGAGCCCGGGUAAGUUGUAGUAGUCUGCAUGCCGCCGGGCGCCAUGCCUGCAGGUCGACUCUAGAAAACAUG”, the binding signal (log2 enrichment (interaction score)) in assay [1] is -5.22; in assay [2] it was -7.21; in assay [3], less than -1.94; in assay [5], less than -7.01.
For the sequence “GGCUAGAACUAGUGGAUCCCCCGGCGCCCGGCGGCUCGAGCCCGGGUAAGUCUAAGGUGUCUGCAUGCCGCCGGGCGCCAUGCCUGCAGGUCGACUCUAGAAAACAUG”, the figures for the binding signal (log2 enrichment (interaction score)) in assay [1], in assay [2] and in assay [3] were -4.65, less than -6.83 and less than -1.01, respectively.
With “GGCUAGAACUAGUGGAUCCCCCGGCGCCCGGCGGCUCGAGCCCGGGUAAGUUUAUUAAGUCUGCAUGCCGCCGGGCGCCAUGCCUGCAGGUCGACUCUAGAAAACAUG”, the binding signal (log2 enrichment (interaction score)) is -5.52 in assay [1], -5.26 in assay [2] and -0.7 in assay [4].
